{"source": "PubChem BioAssay AID493246 | Drosophila RNAi Screening Center – 2011", "assay": "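Genes fly cells need to grow and stay alive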 (primary screen)", "cells": "Drosophila Kc and S2R+ cells", "reagent": "long dsRNA against Drosophila genes", "detection": "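Raw, unnormalised count of remaining cells in each well; per-plate z-scores of cell number underlie the calls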", "direction": "Kc cell number and S2R+ cell number: higher = more cells remaining", "active means": "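Active when the per-plate z-score of cell number is 3 or more in the direction of fewer cells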", "note": "The deposit covers about 21,000 reagents; below is an unselected part of those with a known target gene and a result. Of all reagents, 429 (2%) were called active. 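Values are raw and not normalised between plates; calls rest on per-plate z-scores that were not deposited.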 A number with no mark means an inactive call. No sequences are given here. Not given: the amount of reagent, the time to read-out."}
{"gene": "CG10257", "amplicon": "DRSC05985", "Kc cell number, rep 1": 1.46e6, "Kc cell number, rep 2": 1.53e6, "S2R+ cell number, rep 1": 1.19e6, "S2R+ cell number, rep 2": 1.29e6}
{"gene": "Acbp4", "amplicon": "DRSC11023", "Kc cell number, rep 1": 1.63e6, "Kc cell number, rep 2": 1.54e6, "S2R+ cell number, rep 1": 1.06e6, "S2R+ cell number, rep 2": 1.13e6}
{"gene": "CtsK1", "amplicon": "DRSC08742", "Kc cell number, rep 1": 1.66e6, "Kc cell number, rep 2": 1.58e6, "S2R+ cell number, rep 1": 1.16e6, "S2R+ cell number, rep 2": 1.30e6}
{"gene": "CG42390", "amplicon": "DRSC15866", "Kc cell number, rep 1": 1.52e6, "Kc cell number, rep 2": 1.55e6, "S2R+ cell number, rep 1": 1.02e6, "S2R+ cell number, rep 2": 1.03e6}
{"gene": "CCHa2-R", "amplicon": "DRSC04825", "Kc cell number, rep 1": 1.57e6, "Kc cell number, rep 2": 1.73e6, "S2R+ cell number, rep 1": 9.67e5, "S2R+ cell number, rep 2": 1.07e6}
{"gene": "CCHa2-R", "amplicon": "DRSC04870", "Kc cell number, rep 1": 1.52e6, "Kc cell number, rep 2": 1.57e6, "S2R+ cell number, rep 1": 1.24e6, "S2R+ cell number, rep 2": 1.54e6}
{"gene": "CCHa2-R", "amplicon": "DRSC04871", "Kc cell number, rep 1": 1.56e6, "Kc cell number, rep 2": 1.58e6, "S2R+ cell number, rep 1": 1.24e6, "S2R+ cell number, rep 2": 1.41e6}
{"gene": "CG42588", "amplicon": "DRSC09820", "Kc cell number, rep 1": 1.51e6, "Kc cell number, rep 2": 1.43e6, "S2R+ cell number, rep 1": 1.32e6, "S2R+ cell number, rep 2": 1.45e6}
{"gene": "CG34050 (retired record)", "amplicon": "DRSC09067", "Kc cell number, rep 1": "1.07e6 (active)", "Kc cell number, rep 2": 1.04e6, "S2R+ cell number, rep 1": 6.76e5, "S2R+ cell number, rep 2": 8.55e5}
{"gene": "CG15546", "amplicon": "DRSC15084", "Kc cell number, rep 1": 1.61e6, "Kc cell number, rep 2": 1.66e6, "S2R+ cell number, rep 1": 1.03e6, "S2R+ cell number, rep 2": 1.18e6}
{"gene": "CG4686", "amplicon": "DRSC15622", "Kc cell number, rep 1": 1.22e6, "Kc cell number, rep 2": 1.21e6, "S2R+ cell number, rep 1": 1.09e6, "S2R+ cell number, rep 2": 1.21e6}
{"gene": "Eglp3", "amplicon": "DRSC04293", "Kc cell number, rep 1": 1.62e6, "Kc cell number, rep 2": 1.65e6, "S2R+ cell number, rep 1": 1.22e6, "S2R+ cell number, rep 2": 1.31e6}
{"gene": "retinin", "amplicon": "DRSC09940", "Kc cell number, rep 1": 1.41e6, "Kc cell number, rep 2": 1.47e6, "S2R+ cell number, rep 1": 1.20e6, "S2R+ cell number, rep 2": 1.31e6}
{"gene": "CG1024", "amplicon": "DRSC12496", "Kc cell number, rep 1": 1.50e6, "Kc cell number, rep 2": 1.70e6, "S2R+ cell number, rep 1": 1.32e6, "S2R+ cell number, rep 2": 1.54e6}
{"gene": "Cad99C", "amplicon": "DRSC15050", "Kc cell number, rep 1": 1.49e6, "Kc cell number, rep 2": 1.49e6, "S2R+ cell number, rep 1": 1.03e6, "S2R+ cell number, rep 2": 1.14e6}
{"gene": "Cad99C", "amplicon": "DRSC16317", "Kc cell number, rep 1": 5.02e5, "S2R+ cell number, rep 1": 7.74e5}
{"gene": "U3-55K", "amplicon": "DRSC05982", "Kc cell number, rep 1": 1.58e6, "Kc cell number, rep 2": 1.61e6, "S2R+ cell number, rep 1": 1.32e6, "S2R+ cell number, rep 2": 1.42e6}
{"gene": "CG34382", "amplicon": "DRSC08999", "Kc cell number, rep 1": 1.28e6, "Kc cell number, rep 2": 1.43e6, "S2R+ cell number, rep 1": 1.11e6, "S2R+ cell number, rep 2": 1.25e6}
{"gene": "CG34382", "amplicon": "DRSC10166", "Kc cell number, rep 1": 1.37e6, "Kc cell number, rep 2": 1.61e6, "S2R+ cell number, rep 1": 1.29e6, "S2R+ cell number, rep 2": 1.31e6}
{"gene": "CG34382", "amplicon": "DRSC10167", "Kc cell number, rep 1": 1.47e6, "Kc cell number, rep 2": 1.89e6, "S2R+ cell number, rep 1": 1.20e6, "S2R+ cell number, rep 2": 1.25e6}
{"gene": "Eig71Ej", "amplicon": "DRSC11157", "Kc cell number, rep 1": 1.35e6, "Kc cell number, rep 2": 1.41e6, "S2R+ cell number, rep 1": 1.21e6, "S2R+ cell number, rep 2": 1.32e6}
{"gene": "Pal2", "amplicon": "DRSC04507", "Kc cell number, rep 1": 1.51e6, "Kc cell number, rep 2": 1.56e6, "S2R+ cell number, rep 1": 1.27e6, "S2R+ cell number, rep 2": 1.36e6}
{"gene": "CG5770", "amplicon": "DRSC06954", "Kc cell number, rep 1": 1.43e6, "Kc cell number, rep 2": 1.46e6, "S2R+ cell number, rep 1": 1.15e6, "S2R+ cell number, rep 2": 1.18e6}
{"gene": "metro", "amplicon": "DRSC06341", "Kc cell number, rep 1": 1.31e6, "Kc cell number, rep 2": 1.41e6, "S2R+ cell number, rep 1": 1.10e6, "S2R+ cell number, rep 2": 1.10e6}
{"gene": "metro", "amplicon": "DRSC06725", "Kc cell number, rep 1": 1.55e6, "Kc cell number, rep 2": 1.62e6, "S2R+ cell number, rep 1": 1.24e6, "S2R+ cell number, rep 2": 1.33e6}
{"gene": "CG3603", "amplicon": "DRSC18317", "Kc cell number, rep 1": 1.48e6, "Kc cell number, rep 2": 1.48e6, "S2R+ cell number, rep 1": 1.04e6, "S2R+ cell number, rep 2": 1.18e6}
{"gene": "CG31802", "amplicon": "DRSC02459", "Kc cell number, rep 1": 1.69e6, "Kc cell number, rep 2": 1.65e6, "S2R+ cell number, rep 1": 1.24e6, "S2R+ cell number, rep 2": 1.50e6}
